According to patent publication US8101612B2, “Phthalazine compounds and methods of use” (Amgen Inc., priority 2006, dated 2012):
pIC50: −log10 of the molar value. At least one compound was matched to its structure with a doubt left.

Key:
[1] = AA2734_IC50_IP (Table 4, assay code not explained); conditions: internal assay code
[2] = AA5225_IC50_IP (Table 4, assay code not explained); conditions: internal assay code

Cc1ccc(C(=O)NC2CC2)cc1-c1ccc2c(-c3cc(Cl)c(S(C)(=O)=O)cc3C)nncc2c1 [Example 224, 3-(1-(5-chloro-2-methyl-4-(methylsulfonyl)phenyl)-6-phthalazinyl)-N-cyclopropyl-4-methylbenzamide]
pIC50 [1]: 8.43 | pIC50 [2]: 9.05
